Results taken from PubChem BioAssay AID445 (National Center for Advancing Translational Sciences (NCATS), 2006).
This is one part of the list. The main result of the screen is listed elsewhere. These columns were measured beside it and carry no call. Compounds called inactive in the main read-out are mostly missing here. The note in brackets gives the kind of curve behind each potency; many fits are weak.

Assay: IkB Signaling
Conditions: ABC-DLBCL IkBa-CBG/CBR dual luciferase ratio (green luciferase fused to IkBa over red control in OCI-Ly3 lymphoma cells), 4 h
Outline: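 Curves were fitted separately to fusion (green), unfused (red) and ratio luminescence, then classed by r2, magnitude and activity. Cells: OCI-Ly3, 4 h compound plus doxycycline at 37C; 10 uM MG-132 defined full response.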

[1] = measured here: control luc red channel unless noted

O=C(Nc1nc2c(s1)CCCCCC2)Nc1ccc(F)cc1F
AC50 [1]: 10 µM [falling, partial curve]

Cc1ccc(C(=O)N2CCc3cc(CNS(=O)(=O)c4cccs4)ccc32)cc1
AC50 [1]: 6.31 µM [falling, partial curve]

O=C(COc1c(F)c(F)c(C(F)(F)F)c(F)c1F)Nc1ccc(N2CCOCC2)c(Cl)c1
AC50 [1]: 10 µM [falling, partial curve]

CCCCn1c(SCC(=O)Nc2cc(NC(=O)c3ccco3)ccc2C)nc2ccccc2c1=O
AC50 (measured here: IkB-luc green channel): 7.94 µM [falling, full curve, poor fit]
AC50 (measured here: control luc red channel): 7.94 µM [falling, full curve]

O=C(Nc1ccc(Oc2ccccc2)cc1)C1CCN(S(=O)(=O)c2ccc(Cl)cc2)CC1
AC50 [1]: 31.6 µM [falling, partial curve]

CCOC(=O)c1cc(S(=O)(=O)NCc2ccc(C)cc2)[nH]n1
AC50 [1]: 0.794 µM [falling, partial curve]

O=S(=O)(c1ccc(Cl)cc1)c1nc(-c2ccco2)oc1SCc1ccc(F)cc1
AC50 [1]: 0.316 µM [falling, partial curve, poor fit]

N#CC1=C2SCN(c3ccccc3)CN2C(=O)CC1c1c(Cl)cccc1Cl (stereo not drawn)
AC50 [1]: 31.6 µM [rising, partial curve] [measured here: IkB-luc green channel]

COc1ccc(-n2c(=O)c3ccccc3n(CC(=O)Nc3ccccc3OC)c2=O)cc1
AC50 [1]: 20 µM [falling, single point]

Cc1ccc2c(CC(=O)Nc3c(C(=O)c4ccc(C)c(F)c4)oc4ccccc34)coc2c1
AC50 [1]: 6.31 µM [rising, partial curve]

CCOc1ccc(NC(=O)c2cnc3ccccn3c2=O)cc1
AC50 [1]: 39.8 µM [rising, single point]

CC(=O)c1ccc(NC(=O)c2cnn(-c3cccc(F)c3)c2-n2cccc2)cc1
AC50 [1]: 39.8 µM [falling, partial curve]

COc1ccc(NC(=O)CSc2nc(-c3ccc(F)cc3)[nH]c2-c2ccc(C)cc2)cc1OC
AC50 [1]: 10 µM [falling, partial curve]

Cc1ccc(CNC(=O)c2cc(C)nc3c2c(C)nn3-c2ccc(C)cc2)cc1
AC50 [1]: 25.1 µM [falling, partial curve, poor fit]

c1ccc2c(c1)nc(-c1ccncc1)n1nnnc21
AC50 [1]: 15.8 µM [falling, partial curve]

CC(=O)c1ccc(NC(=O)c2cc3sccc3n2Cc2ccc(F)cc2)cc1
AC50 [1]: 3.98 µM [rising, single point]

CCCCCOC(=O)CSc1ncnc2sc3c(c12)CCC(C)C3 (stereo not drawn)
AC50 [1]: 31.6 µM [falling, partial curve, poor fit]
